Part of at least one peptide drawing is inferred or uncertain, most often the ends.
System: eboIZN21
Format: binding, Zaire ebolavirus

CC[C@H](C)[C@H](NC(C)=O)C(=O)N[C@@H](CCC(=O)O)C(=O)N1CCC[C@H]1C(=O)N[C@@H](Cc1c[nH]cn1)C(=O)N[C@@H](CC(=O)O)C(=O)N[C@@H](Cc1c[nH]c2ccccc12)C(=O)N[C@H](C(=O)N[C@@H](CCCCN)C(=O)N[C@@H](CC(N)=O)C(=O)N[C@H](C(=O)N[C@H](C(=O)N[C@@H](CC(=O)O)C(=O)N[C@@H](CCCCN)C(=O)N[C@H](C(=O)N[C@@H](CC(=O)O)C(=O)N[C@@H](CCC(N)=O)C(=O)N[C@H](C(=O)N[C@H](C(=O)N[C@@H](Cc1c[nH]cn1)C(=O)N[C@@H](CC(=O)O)C(=O)N[C@@H](Cc1ccccc1)C(=O)N[C@H](C(=O)N[C@@H](CC(=O)O)C(=O)N[C@@H](CCCCN)C(N)=O)C(C)C)[C@@H](C)CC)[C@@H](C)CC)[C@@H](C)CC)[C@@H](C)O)[C@@H](C)CC)[C@@H](C)O [eboC24]
clonal phage specific binding to eboIZN21: over two orders of magnitude over background
